Assay: Acid extraction of oxidized and reduced dinucleotides, NAD detection reagent with PBI 4312
Settings: 60 minutes; for Average relative Light Units (RLU), Acid Treatment: 0.3N hydrochloric acid 15 minutes

Compound	Average relative Light Units (RLU), Acid Treatment (125 nM sample)	Average relative Light Units (RLU), No Acid Treatment (125 nM sample)	Average relative Light Units (RLU), Acid Treatment (250 nM sample)	Average relative Light Units (RLU), No Acid Treatment (250 nM sample)
NC(=O)C1=CN([C@@H]2O[C@H](COP(=O)(O)OP(=O)(O)OC[C@H]3O[C@@H](n4cnc5c(N)ncnc54)[C@H](O)[C@@H]3O)[C@@H](O)[C@H]2O)C=CC1 [NADH]	15,589 RLU	205,932 RLU	25002 RLU	457,580 RLU
NC(=O)c1ccc[n+]([C@@H]2O[C@H](COP(=O)([O-])OP(=O)(O)OC[C@H]3O[C@@H](n4cnc5c(N)ncnc54)[C@H](O)[C@@H]3O)[C@@H](O)[C@H]2O)c1 [NAD]	216,075 RLU	202,591 RLU	433,471 RLU	391,458 RLU

Reference: patent publication US9951372B2, “Compounds and methods for assaying redox state of metabolically active cells and methods for measuring NAD(P)/NAD(P)H” (PROMEGA CORPORATION, priority 2011, dated 2018)
